Experimental data taken from PubChem BioAssay AID493014 (National Center for Advancing Translational Sciences (NCATS), 2011).
This is one part of the list. The main result of the screen is listed elsewhere. These columns were measured beside it and carry no call. Most of these compounds were active or inconclusive in the main read-out, so they are no random draw. Words in brackets tell the shape of the fitted curve; partial curves, single points and poor fits give uncertain potencies.

assay: qHTS Assay to Find Inhibitors of Chronic Active B-Cell Receptor Signaling; details: ABC-DLBCL IkBa-CBG/CBR reporter, luminescence ratio (green luciferase fused to IkBa over red control in TMD8 lymphoma cells), 4 h; measured here: CBR red luminescence, cell number
Outline: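 Cell line TMD8 (human ABC DLBCL), stably expressing tet-inducible CBG68-IkBa fusion and CBR; IMDM/0.5% FBS; cpd up to 46 uM; dox induction, 4 h, 37C/5% CO2; dual luminescence; green/red ratio; MG132 control.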

Compound	AC50
CC(C)[C@@]1(NC(=O)[C@@H]2C=C3c4cccc5[nH]cc(c45)C[C@H]3N(C)C2)O[C@@]2(O)[C@@H]3CCCN3C(=O)[C@H](Cc3ccccc3)N2C1=O	29.1 µM [rising, partial curve, poor fit]
C/C(=N\NC(=O)c1ccccc1)c1c(O)n(C2CCCCC2)c(=O)[nH]c1=O	2 µM [falling, full curve]
Cc1nn(C)c(C)c1CN(Cc1nc(-c2cc(F)ccc2F)oc1C)C1CC1	28.2 µM [falling, single point]
O=c1[nH]c(=S)[nH]c(O)c1N=Nc1ccc(OC(F)F)cc1	7.08 µM [falling, partial curve]
CC1(C)C(c2ccccc2)=NC(c2cccnc2)=[N+]1[O-]	0.1 µM [falling, full curve, poor fit]
CN1C(=O)C(Cc2ccc3c(c2)OCO3)C(=O)N(C)C1=O	0.0082 µM [rising, full curve, poor fit]
CC1=Nc2cc(C(=O)N3CCC4(CC3)OCCO4)ccc2Sc2ccc(Cl)cc21	2.24 µM [rising, partial curve, poor fit]
Cc1cc([N+](=O)[O-])nn1Cc1ccc(C(=O)N/N=C/c2ccc(N(C)C)cc2)cc1	10 µM [falling, partial curve, poor fit]
CCOP(=O)(c1c(F)c(F)c(F)c(F)c1F)C1(O)CCCCC1 (stereo not drawn)	0.0731 µM [falling, full curve, poor fit]
CCOc1ccc(NC(=O)CN(C)C(=O)CCCOc2ccc(Cl)c(C)c2)cc1OCC	8.91 µM [falling, partial curve]
CC1=C(C(=O)Nc2ccccc2)S(=O)(=O)CCO1	3.98 µM [falling, partial curve]
Cc1cc(C(=O)Nc2ccc3c(c2)OCCO3)nn1C(C)(C)C	35.5 µM [rising, single point]
COP(=O)(OC)c1nc(-c2ccc([N+](=O)[O-])cc2)oc1N1CCCCC1	35.5 µM [falling, single point]
COC(=O)C1=C(c2cccc(C#N)c2)C[C@@H]2CC[C@H]1N2C(=O)NCCc1ccccc1	32.6 µM [falling, partial curve, poor fit]
CCC(=NC(C)c1ccccc1)c1c(O)[nH]c(=O)[nH]c1=O (stereo not drawn)	35.5 µM [falling, single point]
c1ccc2c(c1)OCC(C1=NCCN1)O2 (stereo not drawn)	2.51 µM [falling, full curve, poor fit]
O=C(CCC(=O)N1C[C@H]2C[C@@H](C1)c1cccc(=O)n1C2)NCc1ccccc1C(F)(F)F	7.31 µM [falling, partial curve]
CC12CC[C@H]3[C@@H](CCC4(O)C[C@H](O)CCC34/C=N/NC(=O)c3ccc(O)cc3)C1(O)CCC2C1=CC(=O)OC1 (stereo partly drawn)	1.78 µM [falling, full curve]
CCC1CO/C(=C(\C(Cl)=C(Cl)Cl)[N+](=O)[O-])N1Cc1ccc(Cl)nc1 (stereo not drawn)	14.1 µM [rising, single point]

Compound	AC50
O=C1CC(N2CC=C(c3ccc(F)cc3)CC2)C(=O)N1c1ccc(F)cc1 (stereo not drawn)	35.5 µM [falling, single point]
CN(C)c1ccc(-[n+]2c(-c3ccccc3)cc(-c3ccccc3)cc2-c2ccccc2)cc1	11.2 µM [falling, partial curve, poor fit]
CC1CCC(C(C)C)C(OC(=O)COC(=O)c2ccccc2N)C1 (stereo not drawn)	16.4 µM [rising, single point]
O=C(Nc1ccc(N2CCOCC2)cc1)c1ccc([N+](=O)[O-])o1	14.1 µM [falling, single point]
NS(=O)(=O)c1ccc(N=Nc2c(O)[nH]c(=S)[nH]c2=O)cc1	2.82 µM [falling, full curve]
CN(C)S(=O)(=O)c1cccc(NC(=O)CSc2cccc3cccnc23)c1	35.5 µM [falling, single point]
COC(=O)C1=C(c2cccc(OCc3ccccc3)c2)C[C@@H]2CC[C@H]1N2C(=O)NCc1ccc(C(C)(C)C)cc1	20.6 µM [rising, single point]
O=C(N/N=C/c1c(O)n(-c2ccccc2)c(=S)[nH]c1=O)c1ccccc1	2.24 µM [falling, full curve]
Cc1ccc(C(=O)C2C(=O)c3ccccc3C2=O)cc1	15.8 µM [falling, single point]
C[C@@H]1O[C@@H](O[C@@H]2C=C3CCC4C(CC[C@]5(C)[C@@H](c6ccc(=O)oc6)CC[C@]45O)[C@@]3(C)CC2)[C@H](O)[C@H](O)[C@H]1O (stereo partly drawn)	0.0411 µM [falling, full curve]
Cn1c(O)c(C2=NN(C(=O)CCl)C(c3ccccc3)C2)c(=O)n(C)c1=O (stereo not drawn)	17.8 µM [falling, partial curve, poor fit]
CC12CC[C@H]3[C@@H](CCC4(O)C[C@H](O)CCC34/C=N/NC(=O)c3ccccc3O)C1(O)CCC2C1=CC(=O)OC1 (stereo partly drawn)	11.2 µM [falling, partial curve, poor fit]
Cc1cc(Cl)c(S(=O)(=O)N2CCN(c3ccccn3)CC2)cc1OCC(=O)NC1CCCCC1	22.4 µM [falling, single point]
COC(=O)C1=C(c2ccc3ccccc3c2)C[C@@H]2CC[C@H]1N2C(=O)N1CCCC1	25.9 µM [falling, single point]
COc1c(C)cc(C(=O)C2CCCN(Cc3ccccn3)C2)cc1C (stereo not drawn)	3.55 µM [rising, single point]
Cc1c(C=O)c2ccccc2n1Cc1ccccc1F	35.5 µM [rising, partial curve, poor fit]
CNP1(NC)=Nc2nn(-c3ccccc3)c(N)c2C(c2ccccc2)=N1	28.2 µM [falling, single point]
CN1CCC2(CC1)C(C#N)=C(N)NC(S)=C2C#N	5.01 µM [rising, single point]
O=C(O)CNC(=O)C(CS)Cc1ccccc1 (stereo not drawn)	5.8 µM [rising, partial curve, poor fit]

Part of the list above, as a markdown table:

| Compound | AC50 |
| --- | --- |
| COC(=O)C1=C(c2cccc(OCc3ccccc3)c2)C[C@@H]2CC[C@H]1N2C(=O)NCc1ccc(C(C)(C)C)cc1 | 20.6 µM [rising, single point] |
| Cn1c(O)c(C2=NN(C(=O)CCl)C(c3ccccc3)C2)c(=O)n(C)c1=O (stereo not drawn) | 17.8 µM [falling, partial curve, poor fit] |
| O=C(O)CNC(=O)C(CS)Cc1ccccc1 (stereo not drawn) | 5.8 µM [rising, partial curve, poor fit] |
